Measurements reported in article doi:10.1101/2025.05.16.654433.
Positions count from the first letter of the chain named. These are yes or no findings as the source states them, for the method shown. In cells and extracts the contact can be indirect. A yes stands for co-enrichment or nearness to the bait. Other partners may have been found. Sequences can lack the tags named with a protein.

By UniProt entry, the sequences of proteins in these tests, tags left out.
UniProt P48727: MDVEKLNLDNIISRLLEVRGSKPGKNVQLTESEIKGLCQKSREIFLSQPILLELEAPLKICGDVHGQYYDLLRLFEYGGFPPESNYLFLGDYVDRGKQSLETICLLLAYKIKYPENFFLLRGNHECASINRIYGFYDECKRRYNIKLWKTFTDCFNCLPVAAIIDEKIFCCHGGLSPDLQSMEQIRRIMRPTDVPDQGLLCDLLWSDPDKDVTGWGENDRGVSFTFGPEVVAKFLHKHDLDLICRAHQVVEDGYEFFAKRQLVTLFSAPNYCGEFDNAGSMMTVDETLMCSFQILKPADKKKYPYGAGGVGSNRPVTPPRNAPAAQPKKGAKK

Assays:
[1] = target: T1, APE-1 H591Y, 3xflag-tagged, as in the MudPIT immunoprecipitations (C. elegans) (UniProt Q9XVN3); assay: affinity purification with mass spectrometry; 3xflag immunoprecipitation from C. elegans whole-worm lysates (M2 magnetic FLAG beads overnight at 4°C, eluted with 3xFLAG peptide), MudPIT proteomics
T1 sequence: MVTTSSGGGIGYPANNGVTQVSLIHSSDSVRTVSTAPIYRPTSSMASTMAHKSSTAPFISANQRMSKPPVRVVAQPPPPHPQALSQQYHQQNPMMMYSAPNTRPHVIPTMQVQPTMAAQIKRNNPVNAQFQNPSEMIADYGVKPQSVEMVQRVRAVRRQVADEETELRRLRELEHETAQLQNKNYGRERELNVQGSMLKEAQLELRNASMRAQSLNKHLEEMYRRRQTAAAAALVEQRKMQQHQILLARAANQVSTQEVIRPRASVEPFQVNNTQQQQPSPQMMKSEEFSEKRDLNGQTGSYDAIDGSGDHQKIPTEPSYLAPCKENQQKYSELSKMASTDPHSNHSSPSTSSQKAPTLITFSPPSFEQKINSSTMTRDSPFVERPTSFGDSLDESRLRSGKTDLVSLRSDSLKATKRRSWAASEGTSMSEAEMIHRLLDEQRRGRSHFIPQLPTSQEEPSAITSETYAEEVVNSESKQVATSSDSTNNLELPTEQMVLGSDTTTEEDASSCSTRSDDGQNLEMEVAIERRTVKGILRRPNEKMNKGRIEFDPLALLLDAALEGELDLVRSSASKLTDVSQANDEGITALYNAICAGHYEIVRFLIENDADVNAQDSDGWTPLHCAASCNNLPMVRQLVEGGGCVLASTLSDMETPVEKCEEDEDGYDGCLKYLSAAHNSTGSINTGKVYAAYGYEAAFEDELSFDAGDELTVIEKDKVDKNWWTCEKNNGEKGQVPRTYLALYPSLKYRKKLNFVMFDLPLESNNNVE

[2] = target: T2, APE-1 N583K, 3xflag-tagged, as in the MudPIT immunoprecipitations (C. elegans) (UniProt Q9XVN3); assay: as above
T2 sequence: T1 sequence with N583K, Y591H

“GSP-2 (C. elegans PP1 homolog), as found in the MudPIT immunoprecipitations (from UniProt P48727 1-333) (enzyme)” was tested, and the binding [1] was “binds” and the binding [2] was “binds”.
